# The amount applied is not stated for every result.
# Tested on: fertilized eggs at 18.5 days of incubation
# Experiment: Determination of the optimal concentration of luminescent compound and the optimal acquisition time of the signal after in ovo injection
# Format: in vivo, bird
# Conditions: 24 fertilized eggs at 18.5 days of incubation
compound,measurement,setting,value
CC1(C)C(/C=C/C=C/C=C/C=C2\N(CCCCS(=O)(=O)[O-])c3ccc4ccccc4c3C2(C)C)=[N+](CCCCS(=O)(=O)[O-])c2ccc3ccccc3c21.[Na+] [indocyanine green],optimal concentration of luminescent compound (Copt),720 images analyzed,50 micromoles per litre
same,optimal acquisition time of the signal (Topt),camera image capture under laser excitation,90 s
